The labels stand for the following.
B1: antibody-13: optimized anti-human CD3ε chain and anti-human GPC3 bispecific antibody (antibody)
heavy 1: QVQLVESGGGLVQPGRSLRLSCAASGFTFSNAWMHWVRQAPGKGLEWVAQIKDKSQNYATYYAESVKGRFTISRADSKNSIYLQMNSLKTEDTAVYYCRYVHYSASYGVDAWGQGTTVTVSSASTKGPSVFPLAPCSRSTSESTAALGCLVKDYFPEPVTVSWNSGALTSGVHTFPAVLQSSGLYSLSSVVTVPSSSLGTKTYTCNVDHKPSNTKVDKRVESKYGPPCPPCPAPEFRGGPKVFLFPPKPKDTLMISRTPEVTCVVVDVSQEDPEVQFNWYVDGVEVHNAKTKPREEQFASTYRVVSVLTVLHQDWLNGKEYKCKVSNKGLPSSIEKTISKAKGQPREPQVYTLPPSQKEMTKNQVSLTCLVKGFYPSDIAVEWESNGQPENNYKTTPPVLDSDGSFFLYSKLTVDKSRWQEGNVFSCSVMHEALHNRYTQKSLSLSP
heavy 2: QVQLVQSGAEVKKPGASVKVSCKASGYTFTDYEMHWIRQPPGQGLEWIGAIDGKTPDTAYSQKFKGRVTLTADKSTSTAYMELSSLTSEDTAVYYCTRFYSYTYWGQGTLVTVSSASTKGPSVFPLAPCSRSTSESTAALGCLVKDYFPEPVTVSWNSGALTSGVHTFPAVLQSSGLYSLSSVVTVPSSSLGTQTYTCNVDHKPSNTKVDKRVESKYGPPCPPCPAPEFRGGPKVFLFPPKPKDTLMISRTPEVTCVVVDVSQEDPEVQFNWYVDGVEVHNAKTKPREEQFASTYRVVSVLTVLHQDWLNGKEYKCKVSNKGLPSSIEKTISKAKGQPREPQVYTLPPSQEEMTKNQVSLTCLVKGFYPSDIAVEWESNGQPENNYKTTPPVLDSDGSFFLYSKLTVDKSRWQEGNVFSCSVMHEALHNHYTQESLSLSP
light: DIVMTQSPLSLPVTPGEPASISCRSSQSLVHSNRNTYLHWYQQKPGQAPRLLIYKVSNRFSGVPDRFSGSGSGTDFTLKISRVEAEDVGVYYCGQGTQVPYTFGQGTKLEIKRTVAAPSVFIFPPSDEQLKSGTASVVCLLNNFYPREAKVQWKVDNALQSGNSQESVTEQDSKDSTYSLSSTLTLSKADYEKHKVYACEVTHQGLSSPVTKSFNRGEC
B2: antibody-15: optimized anti-human CD3ε chain and anti-human GPC3 bispecific antibody (antibody)
heavy 1: QVQLVESGGGLVQPGRSLRLSCAASGFTFSNAWMHWVRQAPGKGLEWVAQIKDKSQNYATYYAESVKGRFTISRADSKNSIYLQMNSLKTEDTAVYYCRYVHYSASYGVDAWGQGTTVTVSSASTKGPSVFPLAPCSRSTSESTAALGCLVKDYFPEPVTVSWNSGALTSGVHTFPAVLQSSGLYSLSSVVTVPSSSLGTKTYTCNVDHKPSNTKVDKRVESKYGPPCPPCPAPEFRGGPKVFLFPPKPKDTLMISRTPEVTCVVVDVSQEDPEVQFNWYVDGVEVHNAKTKPREEQFASTYRVVSVLTVLHQDWLNGKEYKCKVSNKGLPSSIEKTISKAKGQPREPQVYTLPPSQKEMTKNQVSLTCLVKGFYPSDIAVEWESNGQPENNYKTTPPVLDSDGSFFLYSKLTVDKSRWQEGNVFSCSVMHEALHNRYTQKSLSLSP
heavy 2: QVQLVQSGAEVKKPGASVKVSCKASGYTFTDYEMHWIRQPPGQGLEWIGAIDGKTPDTAYSQKFKGRVTLTADKSTSTAYMELSSLTSEDTAVYYCTRFYSYTYWGQGTLVTVSSASTKGPSVFPLAPCSRSTSESTAALGCLVKDYFPEPVTVSWNSGALTSGVHTFPAVLQSSGLYSLSSVVTVPSSSLGTQTYTCNVDHKPSNTKVDKRVESKYGPPCPPCPAPEFRGGPKVFLFPPKPKDTLMISRTPEVTCVVVDVSQEDPEVQFNWYVDGVEVHNAKTKPREEQFASTYRVVSVLTVLHQDWLNGKEYKCKVSNKGLPSSIEKTISKAKGQPREPQVYTLPPSQEEMTKNQVSLTCLVKGFYPSDIAVEWESNGQPENNYKTTPPVLDSDGSFFLYSKLTVDKSRWQEGNVFSCSVMHEALHNHYTQESLSLSP
light: DIVMTQSPLSLPVTPGEPASISCRSSQSPVHSNRNTYIHWYQQKPGQAPRLLIYKVSNRFSGVPDRFSGSGSGTDFTLKISRVEAEDVGVYYCGQGTQVPYTFGQGTKLEIKRTVAAPSVFIFPPSDEQLKSGTASVVCLLNNFYPREAKVQWKVDNALQSGNSQESVTEQDSKDSTYSLSSTLTLSKADYEKHKVYACEVTHQGLSSPVTKSFNRGEC
B3: antibody-14: optimized anti-human CD3ε chain and anti-human GPC3 bispecific antibody (antibody)
heavy 1: QVQLVESGGGLVQPGRSLRLSCAASGFTFSNAWMHWVRQAPGKGLEWVAQIKDKSQNYATYYAESVKGRFTISRADSKNSIYLQMNSLKTEDTAVYYCRYVHYSASYGVDAWGQGTTVTVSSASTKGPSVFPLAPCSRSTSESTAALGCLVKDYFPEPVTVSWNSGALTSGVHTFPAVLQSSGLYSLSSVVTVPSSSLGTKTYTCNVDHKPSNTKVDKRVESKYGPPCPPCPAPEFRGGPKVFLFPPKPKDTLMISRTPEVTCVVVDVSQEDPEVQFNWYVDGVEVHNAKTKPREEQFASTYRVVSVLTVLHQDWLNGKEYKCKVSNKGLPSSIEKTISKAKGQPREPQVYTLPPSQKEMTKNQVSLTCLVKGFYPSDIAVEWESNGQPENNYKTTPPVLDSDGSFFLYSKLTVDKSRWQEGNVFSCSVMHEALHNRYTQKSLSLSP
heavy 2: QVQLVQSGAEVKKPGASVKVSCKASGYTFTDYEMHWIRQPPGQGLEWIGAIDGKTPDTAYSQKFKGRVTLTADKSTSTAYMELSSLTSEDTAVYYCTRFYSYTYWGQGTLVTVSSASTKGPSVFPLAPCSRSTSESTAALGCLVKDYFPEPVTVSWNSGALTSGVHTFPAVLQSSGLYSLSSVVTVPSSSLGTQTYTCNVDHKPSNTKVDKRVESKYGPPCPPCPAPEFRGGPKVFLFPPKPKDTLMISRTPEVTCVVVDVSQEDPEVQFNWYVDGVEVHNAKTKPREEQFASTYRVVSVLTVLHQDWLNGKEYKCKVSNKGLPSSIEKTISKAKGQPREPQVYTLPPSQEEMTKNQVSLTCLVKGFYPSDIAVEWESNGQPENNYKTTPPVLDSDGSFFLYSKLTVDKSRWQEGNVFSCSVMHEALHNHYTQESLSLSP
light: DIVMTQSPLSLPVTPGEPASISCRSSQPPVHSNRNTYLHWYQQKPGQAPRLLIYKVSNRFSGVPDRFSGSGSGTDFTLKISRVEAEDVGVYYCGQGTQVPYTFGQGTKLEIKRTVAAPSVFIFPPSDEQLKSGTASVVCLLNNFYPREAKVQWKVDNALQSGNSQESVTEQDSKDSTYSLSSTLTLSKADYEKHKVYACEVTHQGLSSPVTKSFNRGEC
B4: antibody-35: optimized anti-human CD3ε chain and anti-human GPC3 bispecific antibody (antibody)
heavy 1: QVQLVESGGGLVQPGRSLRLSCAASGFTFSNAWMHWVRQAPGKGLEWVAQIKDKSQNYATYVAESVKGRFTISRDDSKNSLYLQMNSLKTEDTAVYYCRYVHYAAGYGVDAWGQGTTVTVSSASTKGPSVFPLAPCSRSTSESTAALGCLVKDYFPEPVTVSWNSGALTSGVHTFPAVLQSSGLYSLSSVVTVPSSSLGTKTYTCNVDHKPSNTKVDKRVESKYGPPCPPCPAPEFRGGPKVFLFPPKPKDTLMISRTPEVTCVVVDVSQEDPEVQFNWYVDGVEVHNAKTKPREEQFASTYRVVSVLTVLHQDWLNGKEYKCKVSNKGLPSSIEKTISKAKGQPREPQVYTLPPSQKEMTKNQVSLTCLVKGFYPSDIAVEWESNGQPENNYKTTPPVLDSDGSFFLYSKLTVDKSRWQEGNVFSCSVMHEALHNRYTQKSLSLSP
heavy 2: QVQLVQSGAEVKKPGASVTVSCKASGYTFTDYEMHWIRQPPGEGLEWIGAIDGPTPDTAYSEKFKGRVTLTADKSTSTAYMELSSLTSEDTAVYYCTRFYSYTYWGQGTLVTVSSASTKGPSVFPLAPCSRSTSESTAALGCLVKDYFPEPVTVSWNSGALTSGVHTFPAVLQSSGLYSLSSVVTVPSSSLGTQTYTCNVDHKPSNTKVDKRVESKYGPPCPPCPAPEFRGGPKVFLFPPKPKDTLMISRTPEVTCVVVDVSQEDPEVQFNWYVDGVEVHNAKTKPREEQFASTYRVVSVLTVLHQDWLNGKEYKCKVSNKGLPSSIEKTISKAKGQPREPQVYTLPPSQEEMTKNQVSLTCLVKGFYPSDIAVEWESNGQPENNYKTTPPVLDSDGSFFLYSKLTVDKSRWQEGNVFSCSVMHEALHNHYTQESLSLSP
light: DIVMTQSPLSLPVTPGEPASISCRSSQPLVHSNRNTYLHWYQQKPGQAPRLLIYKVSNRFSGVPDRFSGSGSGTDFTLKISRVEAEDVGVYYCGQGTQVPYTFGQGTKLEIKRTVAAPSVFIFPPSDEQLKSGTASVVCLLNNFYPREAKVQWKVDNALQSGNSQESVTEQDSKDSTYSLSSTLTLSKADYEKHKVYACEVTHQGLSSPVTKSFNRGEC
B5: antibody-30: optimized anti-human CD3ε chain and anti-human GPC3 bispecific antibody (antibody)
heavy 1: QVQLVESGGGLVQPGRSLRLSCAASGFTFSNAWMHWVRQAPGKGLEWVAQIKDKSQNYATYYAESVKGRFTISRDDSKNSLYLQMNSLKTEDTAVYYCRYVHYAAGYGVDAWGQGTTVTVSSASTKGPSVFPLAPCSRSTSESTAALGCLVKDYFPEPVTVSWNSGALTSGVHTFPAVLQSSGLYSLSSVVTVPSSSLGTKTYTCNVDHKPSNTKVDKRVESKYGPPCPPCPAPEFRGGPKVFLFPPKPKDTLMISRTPEVTCVVVDVSQEDPEVQFNWYVDGVEVHNAKTKPREEQFASTYRVVSVLTVLHQDWLNGKEYKCKVSNKGLPSSIEKTISKAKGQPREPQVYTLPPSQKEMTKNQVSLTCLVKGFYPSDIAVEWESNGQPENNYKTTPPVLDSDGSFFLYSKLTVDKSRWQEGNVFSCSVMHEALHNRYTQKSLSLSP
heavy 2: QVQLVQSGAEVKKPGASVTVSCKASGYTFTDYEMHWVRQAPGEGLEWMGAIDGETPDTAYSEKFKGRVTLTADKSTSTAYMELSSLTSEDTAVYYCTRFYSYTYWGQGTLVTVSSASTKGPSVFPLAPCSRSTSESTAALGCLVKDYFPEPVTVSWNSGALTSGVHTFPAVLQSSGLYSLSSVVTVPSSSLGTQTYTCNVDHKPSNTKVDKRVESKYGPPCPPCPAPEFRGGPKVFLFPPKPKDTLMISRTPEVTCVVVDVSQEDPEVQFNWYVDGVEVHNAKTKPREEQFASTYRVVSVLTVLHQDWLNGKEYKCKVSNKGLPSSIEKTISKAKGQPREPQVYTLPPSQEEMTKNQVSLTCLVKGFYPSDIAVEWESNGQPENNYKTTPPVLDSDGSFFLYSKLTVDKSRWQEGNVFSCSVMHEALHNHYTQESLSLSP
light: DIVMTQSPLSLPVTPGEPASISCRSSQPLVHSNRNTYLHWYQQKPGQAPRLLIYKVSNRFSGVPDRFSGSGSGTDFTLKISRVEAEDVGVYYCGQGTQVPYTFGQGTKLEIKRTVAAPSVFIFPPSDEQLKSGTASVVCLLNNFYPREAKVQWKVDNALQSGNSQESVTEQDSKDSTYSLSSTLTLSKADYEKHKVYACEVTHQGLSSPVTKSFNRGEC

The test system of this series is extracellular matrix (BD Matrigel). As to the kind of experiment: Assessment of the ECM-binding ability (ECL on BD Matrigel). As to conditions: fluorescence intensity relative to standard antibody MRAH-G1d/MRAL-k0.
B1: the “ECM binding ratio (standard = 1)” value was found to be 0.8.
On to B2, for which the “ECM binding ratio (standard = 1)” value was 0.8.
To B3 belongs 0.8.
To B4 belongs 0.7; to B5, 0.7.

(Values after patent US20250066503A1, “CELL INJURY INDUCING THERAPEUTIC DRUG FOR USE IN CANCER THERAPY” (CHUGAI SEIYAKU KABUSHIKI KAISHA, priority 2016, published 2025).)
